Source: PubChem BioAssay AID504467 (National Center for Advancing Translational Sciences (NCATS), 2011)
The whole screen tested about 330,000 compounds, of which about 7,700 (2.3%) were called active. Inconclusive results, whose numbers are uncertain, are shown with a selection of clear calls. The call rests on the fitted dose curve; in most records, active means well fitted inhibition curve with a large enough effect; inconclusive means small, poorly fitted or top-dose-only effect, or effect the other way; inactive means flat fitted curve, though single readings scatter. Potencies beside an inconclusive call are fits to weak or partial responses and may not hold up.

Assay: qHTS screen for small molecules that inhibit ELG1-dependent DNA repair in human embryonic kidney (HEK293T) cells expressing luciferase-tagged ELG1; further: nearly all actives have a fitted effect of over 55% in size
Details: HEK293T ELG1-luciferase reporter, luminescence, 16 h, DNA damage induced by 5-fluorouridine; series mostly up to 46.1 µM
In short: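 Overnight (16 hr) co-exposure of 2,000 cells/well to 5-fluorouridine and compound at 37 °C preceded detection. Luciferase was quantified via ONE-Glo luminescence; loss of signal denotes inhibition.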
Potency means the concentration at half of the fitted maximal effect.

Structure (SMILES)	Potency
O=C(Nc1nc2ccccc2s1)c1ccc2c(c1)OCO2	inconclusive: 0.206 µM [activator, full curve]
O=C(Nc1ccc(CN2CCOCC2)cc1)c1ccc(-c2cc(Cl)ccc2Cl)o1	active: 23.1 µM
O=C(Nc1ccc(OC(F)F)cc1)Nc1cccc(C(F)(F)F)c1	inactive
O=C(O)c1cc(-c2ccco2)nc2cc3ccccc3cc12	inconclusive: 11.6 µM [activator, partial curve, poor fit]
O=C(O)c1cnn2c1NC(c1ccc(F)cc1)CC2C(F)(F)F (stereo not given)	inactive
O=S(=O)(Nc1ccc(S(=O)(=O)N2CCOCC2)cc1)c1ccccc1	inactive
O=C(c1cc(-c2ccc(Br)cc2)on1)N1CCCCCC1	inconclusive: 3.66 µM [activator, partial curve]
CCOC(=O)C1(Cc2cccc(OC)c2)CCN(Cc2cccn2-c2nccs2)CC1	inconclusive: 20.6 µM [inhibitor, single point]
O=C(Nc1ccc2c3c(cccc13)CC2)c1ccc(Br)o1	inconclusive: 20.6 µM [activator, partial curve]
COc1ccccc1C(=O)NC(CCSC)C(=O)NCCCSc1ccccc1 (stereo not given)	inconclusive: 4.61 µM [inhibitor, single point]
COc1ccccc1NC(=O)Cn1nnc(-c2ccccc2NS(=O)(=O)c2ccccc2)n1	inconclusive: 18.4 µM [inhibitor, single point]
NC(=O)C1CCCN(C(=S)Nc2ccccc2)C1 (stereo not given)	inactive
CCOC(=O)C1=C(N)n2c(s/c(=C\c3cccs3)c2=O)=C(C(=O)OCC)C1c1cccs1 (stereo not given)	inactive
Cc1cnc(C(=O)OCC(=O)Nc2ccc(Cl)cn2)cn1	inconclusive: 18.3 µM [inhibitor, single point]
Cc1cccc(NC(=O)C[n+]2ccc(N(C)C)cc2)c1	inactive
O=C(Cc1cccs1)Nc1cccc(-c2nc3cc4ccccc4cc3[nH]2)c1	inconclusive: 32.6 µM [inhibitor, single point]
CCN(Cc1ccc2c(c1)OCCO2)C(=O)CSc1nc(C)nc2sc(C)c(C)c12	active: 13 µM
COc1ccc(CCN=C(NS(=O)(=O)c2ccc(Cl)cc2)c2ccccc2)cc1	inactive
O=[N+]([O-])c1ccccc1S(=O)(=O)Nc1ccc(-c2ccc(N3CCOCC3)nn2)cc1	inconclusive: 5.8 µM [activator, partial curve, poor fit]
COc1ccccc1NC(C)=O	inactive
Cc1c(CCOC(=O)c2cccc([N+](=O)[O-])c2)sc[n+]1CC(=O)c1ccccc1	inconclusive: 29.1 µM [inhibitor, single point]
CCOC(=O)c1ccc(N2C(=O)C(C)=C(C)C2=O)cc1	inactive
C(=C\c1ccccc1)/C=N/Nc1nc2ccccc2s1	inconclusive: 14.6 µM [activator, partial curve]
CCOC(=O)c1cc2occc2n1CC(=O)N1CCCc2ccccc21	inactive
O=C(NCc1cccs1)c1cc(C2CC2)on1	inconclusive: 23.1 µM [activator, partial curve]

Structure (SMILES)	Potency
CCCCN(CC)CCNC(=O)c1cc2c(-c3ccc(Cl)cc3)nn(C)c2s1	inconclusive: 23.1 µM [activator, partial curve, poor fit]
Cc1cccc(C(=O)OC(C)CN2CCOCC2)c1 (stereo not given)	inconclusive: 16.4 µM [activator, single point]
CN(CC(=O)Nc1ccccc1Oc1ccccc1)Cc1ccccc1F	inactive
c1ccc2[nH]c(SCc3cn4ccccc4n3)nc2c1	inactive
Cc1n[nH]c(C)c1S(=O)(=O)N1CCCC(C(=O)N2CCc3ccccc32)C1 (stereo not given)	inconclusive: 23.1 µM [inhibitor, partial curve]
COc1cccc(NC(=O)CN(C)CC(=O)Nc2ccc(Br)cc2)c1	inactive
COC(=O)CNc1nc(-c2ccccc2F)nc2ccccc12	inconclusive: 23.1 µM [inhibitor, partial curve]
N#C/C(=C1\CCCN1)c1nc(-c2ccccc2)cs1	inconclusive: 29.1 µM [activator, single point]
Cc1ccc(C)c(S(=O)(=O)N2CCN(C(=O)c3n[nH]c(=O)c4ccccc34)CC2)c1	inconclusive: 16.4 µM [inhibitor, partial curve, poor fit]
CCCNC(=S)Nc1ccc(F)cc1F	active: 16.4 µM
CN(C(=O)COC(=O)c1cn(-c2ccccc2)nc1-c1ccccc1)C1CCS(=O)(=O)C1 (stereo not given)	inactive
CCOC(=O)c1ccc(Oc2cc(C)nc(Cl)n2)cc1	inconclusive: 0.0651 µM [activator, full curve]
CCn1c(SCC(=O)c2ccc(C)cc2)nnc1-c1ccncc1	inactive
Cc1nn(Cc2ccccc2)c(C)c1/C=N/NC(=O)c1ccncc1	inconclusive: 6.51 µM [inhibitor, partial curve, poor fit]
C(=N\c1nc2ccccc2n1CCN1CCCCC1)/c1ccc2c(c1)OCO2	inactive
CCN(CC)CCN(Cc1cc2cc3c(cc2[nH]c1=O)OCCO3)C(=O)NC1CCCCC1	inconclusive: 18.4 µM [activator, single point]
CCCCNC(=S)NNC(=O)C1=NN(c2cc(C)ccc2C)C(=O)CC1	inactive
FC(F)Oc1ccc(-c2csc(NNC3=NCCCCC3)n2)cc1	inactive
Cc1ccc2nc(Nc3nc(=O)c4ccccc4n3C)nc(C)c2c1	inactive
COC(=O)/C(=C\Nc1ccc(Cl)cc1Cl)NC(=O)c1ccc(OC)cc1	inactive
Cc1ccc(S(=O)(=O)NCCC(c2ccc(F)cc2)c2ccco2)cc1 (stereo not given)	inconclusive: 13 µM [inhibitor, partial curve, poor fit]
COc1ccc(Cc2n[nH]c(=S)n2NC(=O)Nc2ccc(C)cc2)cc1	inconclusive: 23.1 µM [activator, partial curve]
Cc1ccc(C)c(S(=O)(=O)N2CCCC2CNC(=O)C(=O)NCCN2CCOCC2)c1 (stereo not given)	inactive
COc1ccccc1N1CCN(C(=O)c2ccc(S(=O)(=O)N3CCCC3)cc2)CC1	inactive
CCn1c(SCC(=O)Nc2ccc(NC(C)=O)cc2)nc2c([nH]c3ccccc32)c1=O	inconclusive: 13 µM [activator, partial curve, poor fit]

Reformatted bar-delimited: 3 of the compounds above
Structure (SMILES) | Potency
Cc1n[nH]c(C)c1S(=O)(=O)N1CCCC(C(=O)N2CCc3ccccc32)C1 (stereo not given) | inconclusive: 23.1 µM [inhibitor, partial curve]
Cc1ccc(C)c(S(=O)(=O)N2CCN(C(=O)c3n[nH]c(=O)c4ccccc34)CC2)c1 | inconclusive: 16.4 µM [inhibitor, partial curve, poor fit]
CCCNC(=S)Nc1ccc(F)cc1F | active: 16.4 µM

Continued:

Structure (SMILES)	Potency
NC(=O)c1cc([N+](=O)[O-])ccc1NCC1CCCCC1	inconclusive: 28.2 µM [activator, single point]
Cc1ccc(/C(N)=N/OC(=O)N2CCOCC2)cc1	inactive
O=C(NNS(=O)(=O)c1ccc2ccccc2c1)NC1CCCCC1	inactive
CCOC(=O)C1CCN(C(=O)c2cc3cc(C)ccc3[nH]2)CC1	inconclusive: 8.2 µM [activator, partial curve]
Cc1nc(NCc2ccccn2)c2ccccc2n1	inconclusive: 2.59 µM [inhibitor, full curve]
O=C(Nc1ccc(Cl)cc1)Nc1ccon1	inactive
O=c1c2ccccc2nc(/C=C/c2cccc([N+](=O)[O-])c2)n1CCO	inconclusive: 23.1 µM [inhibitor, single point]
CCSc1ncnc2c1sc1nc3c(cc12)COC(C)(C)C3	inconclusive: 2.31 µM [activator, full curve]
Cc1c(NCc2cc(Cl)cc(Cl)c2O)c(=O)n(-c2ccccc2)n1C	inactive
CC(=O)Nc1ccc(NC(=O)[C@H](C)NC(=O)c2ccco2)cc1	inconclusive: 29.1 µM [activator, single point]
O=c1ccc(S(=O)(=O)N2CCCC2)cn1Cc1nc(-c2ccc(F)cc2)no1	inconclusive: 20.6 µM [inhibitor, partial curve, poor fit]
O=C1C=C(/C=C/C2C=CC=CC2)C[C@@H](c2ccc(Cl)cc2)C1 (stereo not given in full)	inactive
CC(=O)NC(c1ccc(Cl)cc1Cl)c1ccc2cccnc2c1O (stereo not given)	inconclusive: 2.59 µM [inhibitor, partial curve, poor fit]
O=C(NNC(=S)Nc1ccc(F)cc1)[C@H]1C[C@@H]1c1ccccc1	inconclusive: 29.1 µM [inhibitor, single point]
O=C(C1=NN[C@@H]2C(=O)N(c3cccc(F)c3)C(=O)[C@H]12)C(c1ccccc1)c1ccccc1	inactive
CCOc1ccc(Oc2ccc(NC(=O)[C@@H](NC(N)=O)[C@@H](C)CC)cc2)cc1	inconclusive: 20.6 µM [activator, single point]
O=C(CNC(=O)c1sc2ccccc2c1Cl)NC1CC1	inconclusive: 16.4 µM [activator, partial curve, poor fit]
C[n+]1nc(Nc2ccccc2)sc1-c1ccc(C(=O)O)cc1	inactive
O=C(CCCn1c(=S)[nH]c2cc3c(cc2c1=O)OCO3)N1CCN(c2ccc(Cl)cc2)CC1	active: 23.1 µM
CCNc1nc(Nc2ccc(C)c(Cl)c2)c2cnn(C)c2n1	active: 9.2 µM
S=C(NCCc1ccccc1)Nc1ccc(Br)cc1	inconclusive: 20.6 µM [activator, partial curve]
COc1cccc(CC(NC(C)=O)C(=O)NC2CCN(c3c(Cc4ccccc4)c(C)nc4ncnn34)CC2)c1 (stereo not given)	inconclusive: 18.4 µM [inhibitor, single point]
COc1cccc(CNc2ccc3c(c2)ncn3C(C)C)c1OC	inconclusive: 2.91 µM [activator, partial curve, poor fit]
COc1cc2c(cc1NC(=O)Cc1ccc(C)cc1)oc1ccccc12	inconclusive: 23.1 µM [activator, partial curve]
O=C(/C=C/c1ccco1)NCCc1ccccc1	inconclusive: 20.6 µM [activator, partial curve]
